The values that follow come from patent publication US4667019A, “Azo dyes containing a triazolyl group for use in liquid crystalline materials” (Kernforschungszentrum Karlsruhe GmbH, priority 1986, dated 1987).

The data set in a line: light-stability, high-speed exposure of the measuring cell in a Suntest. In kind it is physicochemical. Conditions: before exposure, 25° C. The method, then: The light-stability was determined by high-speed exposure of the measuring cell in a Suntest from Hanau, at 25° C. In this procedure, the decrease in E^.parallel. was measured. The initial extinction E^.parallel. and the exposure time E^.parallel.80% after which E^.parallel. has decreased to 80% are shown in Table 2 for Examples 5, 8, 9, 10, 11, 12, 13, 14 and 15. The percentage change in E^.parallel.0 is plotted against the exposure time in FIGS. 2, 3 and 4 for Examples 8, 11 and 15.
For `CCOC(=O)c1nn(-c2ccc(N=Nc3cc(C)c(N=Nc4ccc(N(C)C)cc4)cc3C)cc2)nc1C` [Example 5], the “initial extinction E∥ (Eo ")” value was 1,39.

As for `CCOC(=O)c1nn(-c2ccc(N=Nc3ccc(N=Nc4ccc(N(C)C)cc4)c4ccccc34)cc2)nc1C` [Example 8], the “initial extinction E∥ (Eo ")” value was 1,16.

With `Cc1ccc2nn(-c3cc(C)c(N=Nc4cc(C)c(N=Nc5ccc(N(C)C)cc5)cc4C)cc3C)nc2c1` [Example 9], the “initial extinction E∥ (Eo ")” value is listed as 1,47.

Consider `Cc1ccc2nn(-c3ccc(N=Nc4cc(C)c(N=Nc5ccc(N(C)C)cc5)cc4C)cc3)nc2c1` [Example 10], for which the “initial extinction E∥ (Eo ")” value is given as 1,88.

Consider `Cc1ccc2nn(-c3ccc(N=Nc4ccc(N=Nc5ccc(N)cc5C)cc4C)cc3C)nc2c1` [Example 11], for which the “initial extinction E∥ (Eo ")” value was 1,63.

`CCCCN(CCCC)c1ccc(N=Nc2ccc(N=Nc3ccc(-n4nc5ccc(C)cc5n4)c(C)c3)c(C)c2)cc1` [Example 13]: the “initial extinction E∥ (Eo ")” value is recorded as 1,80.

For `CCCCc1ccc2nn(-c3ccc(N=Nc4cc(C)c(N=Nc5ccc(N(C)C)cc5)cc4C)cc3C)nc2c1` [Example 14], the “initial extinction E∥ (Eo ")” value was 1,57.

For `CCCCc1ccc2nn(-c3ccc(N=Nc4ccc(N=Nc5ccc(N(C)C)cc5)cc4C)cc3C)nc2c1` [Example 15], the “initial extinction E∥ (Eo ")” value is reported as 1,25.
